# Assay results from PMC3482241.
# For at least one entry, the source does not settle the construct or the ends of the probe. Tags and fusion partners may be left off the protein sequences shown.
# Biological target: T1, NFAT1 DBD (UniProt Q60591)
# T1 sequence (looked up, limits assumed): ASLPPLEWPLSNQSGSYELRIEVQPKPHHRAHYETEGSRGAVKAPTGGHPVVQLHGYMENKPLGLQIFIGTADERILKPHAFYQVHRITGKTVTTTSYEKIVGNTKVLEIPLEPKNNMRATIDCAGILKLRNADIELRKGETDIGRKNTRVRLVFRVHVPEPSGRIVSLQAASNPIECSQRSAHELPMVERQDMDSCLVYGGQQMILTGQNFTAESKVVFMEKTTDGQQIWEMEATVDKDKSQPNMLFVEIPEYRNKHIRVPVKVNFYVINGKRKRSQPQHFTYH
# Assay: EMSA
# Details: 10 nM-1 uM protein, dose-dependent, poly(dI:dC) 0.2 ug/reaction; EMSA: 10 mM HEPES pH 7.0, 125 mM NaCl, 10% glycerol, 0.25 mM DTT, 0.8 mg/mL BSA, 0.2 ug poly(dI:dC) in 20 uL, 20 min at room temperature; 4% native PAGE in 1x TBE; recombinant protein; protein details: Ni-NTA purified (His tag implied); label: 32P 5' end (T4 PNK)
sequence,measurement,value
GCCCAAAGAGGAAAATTTGTTTCATACAG (double strand) [IL-2 promoter NFAT site oligonucleotide],binding result,binds
